These results are taken from patent US11873291B2, “Quinoline cGAS antagonist compounds” (ImmuneSensor Therapeutics, Inc., priority 2020, dated 2024).

Sequences of proteins named here, by UniProt entry; tags and fusion partners are left off. Residues count along the entry.
UniProt Q8N884, 147-522 limits assumed: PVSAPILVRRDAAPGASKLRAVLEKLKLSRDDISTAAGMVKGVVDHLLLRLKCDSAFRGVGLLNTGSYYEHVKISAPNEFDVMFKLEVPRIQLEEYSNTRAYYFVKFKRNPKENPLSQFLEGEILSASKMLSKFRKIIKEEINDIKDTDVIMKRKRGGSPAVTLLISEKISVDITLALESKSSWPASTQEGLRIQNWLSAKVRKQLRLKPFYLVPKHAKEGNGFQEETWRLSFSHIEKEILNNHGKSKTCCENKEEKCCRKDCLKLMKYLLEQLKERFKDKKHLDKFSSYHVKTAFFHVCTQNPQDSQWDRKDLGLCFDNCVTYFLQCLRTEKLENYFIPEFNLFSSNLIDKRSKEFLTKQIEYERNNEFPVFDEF

Read-outs that look alike come from different tables or passages of the source. Structures were worked out from names or drawings and are uncertain.

Assay [1] has as its target recombinant human cGAS (aa147-522) (Homo sapiens, UniProt Q8N884). The assay is described as follows: In vitro inhibition assay of cGAS activity (ATP consumption, KinaseGlo Max). It counts as biochemical. The procedure:
Expression and Purification of Recombinant cGAS Protein: cDNA encoding full-length or amino acids […] of human cGAS was inserted into a modified pET28a vector containing an in-frame His6-SUMO tag. The E. coli strain BL21/pLys harboring the plasmid was induced with 0.5 mM IPTG at 18° C. overnight. His6-SUMO tag was removed by a SUMO protease digestion following purification of the His6-SUMO-cGAS as described previously (Sun et al, 2013, Science 339, 786).
In vitro inhibition assay of cGAS activity: A 60 μL mixture containing 20 mM Tris-Cl, pH 7.5, 5 mM MgCl2, 0.2 mg/mL BSA, 0.01 mg/mL Herring testis DNA, 6.6 μM ATP, 0.1 mM GTP, 1.5 μg/mL of recombinant human cGAS (aa147-522) and serial dilutions of a test compound in DMSO was added to a 96-well plate and incubated at 37° C. for 20 minutes. At the end of reaction, 40 μL of KinaseGlo Max (Promega) was added and chemiluminescence was measured with a luminometer. Inhibitory effect of a compound is evaluated by plotting percentage of ATP consumption against logarithm of compound concentrations. IC50 value was calculated using GraphPad Prism 8 (GraphPad Software, Inc.).
The letter codes for cGAS IC50 include: A (<2 μM); B (2-30 μM); C (>30 μM).
For orientation: Kinase-Glo measures the ATP left after a reaction by luminescence.

The test system of assay [2] is cGAS activity in Reporter THP1 cell line. The assay is described as follows: Cellular assay to measure cGAS activity: ISRE-Gaussia luciferase reporter THP1 cells transfected with ISD. The procedure:
Cellular assay to measure cGAS activity: Reporter THP1 cell line harboring a gene encoding Gaussia Luciferase under the control of 5 tandem repeats of interferon-stimulated response elements (ISRE) fused to an ISG54 minimal promoter was used to test inhibition of cGAS activity by synthetic compounds in human cells. These cells were plated on 96-well plates at 0.3×10^6/well and incubated with serial dilutions of compounds or DMSO for 5 min, followed by transfection of 2 μg/mL of ISD (Interferon Stimulatory DNA, a 45 bp DNA oligo) or mock transfected using lipofectamine 2000 (Life Technology) method, according to manufacturer's instructions. 16 hours later, 15 μL of the media from each well was transferred to a new plate, 50 μL of solution containing 50 mM Hepes-NaOH, pH 6.5, 50 mM NaCl, 10 mM EDTA, 1 μM of coelenterazine was added to each well and luminescence was measured immediately. Fold increase in luminescence compared to mock transfection was plotted against concentrations of each compound, and IC50 is calculated using Graphpad. To evaluate the specificity of a compound, the same procedure was performed except that cells were transfected with 2 μg/mL poly(I:C) or infected with Sendai Virus (SeV) at 50 Unit/mL, which are known to activate the RIG-I-MAVS pathway. […]
On the technique in general: In a reporter assay the amount or activity of a reporter protein is the signal.

The mark [3] stands for this setting: read-out: cGAS Inhibition Results IC50, Table 3.
Setting [4] is: read-out: cGAS Inhibition Results IC50, Table 2.

Regarding `COC(=O)[C@@H]1[C@H]2C[C@H]2CN1c1cc(-n2ccnc2)c2ccc(Cl)c(Cl)c2n1`, the IC50 – broadly, the concentration that gives 50% inhibition – fell in the range of 2000 to 30000 nM in assay [1] (setting [3]) and 2000 to 10000 nM in assay [2] (read-out: Cellular Assay Results IC50, Table 4, Gaussia luciferase).
`NC(=O)CNc1cc(-n2ccnc2)c2ccc(Cl)c(Cl)c2n1`: in assay [1] (setting [4]), the IC50 fell in the range of 2000 to 30000 nM.
For `O=C(O)CNc1cc(Cl)nc2c(Cl)cc(Cl)cc12`, in assay [1] (setting [4]), the IC50 was above 30000 nM.
For `O=C(O)CCOC[C@@H]1C[C@@H]2C[C@@H]2N1c1cc(-n2ccnc2)c2ccc(Cl)c(Cl)c2n1` [I-707], the IC50 was below 2000 nM in assay [1] (setting [3]) and below 2000 nM in assay [2] (read-out: Cellular Assay Results IC50, untitled table after Table 4 (continuation)).
For the molecule `O=C(O)CO[C@H]1C[C@@H](C(=O)O)N(c2cc(-n3ccnc3)c3ccc(Cl)c(Cl)c3n2)C1`, the IC50 in assay [1] (setting [3]) was below 2000 nM.
